{"source": "the supplement of paper PMC7125110", "parents": {"B1": {"name": "glmS ribozyme (parent)", "chain": "AUAAAAGCGCCAGAACUACAGAAAUGUAGUUGACGAGGAGGAGGUUUAUCGAAUUUUCGGCGGAUGCCUCCAAA"}}, "note": "± gives the standard error. Many entries were measured with a wide error.", "data": [{"variants_of": "B1", "assay": "self-cleavage kobs at 10000 uM GlcN6P; higher = faster cleavage; RNA array", "conditions": "with glucosamine-6-phosphate", "outline": "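The measurements used barcoded ribozyme variants on sequenced MiSeq chips, transcribed in situ by E. coli RNA polymerase and tracked at 37 °C with a hybridised Cy3 probe. Glucosamine-6-phosphate, 40 μM to 10 mM in HEPES/KCl/Mg(OAc)2 buffer, was flowed in while tiles were imaged over ~14 h. Baseline-normalised signals, also normalised to non-cleaving reference variants, gave per-tile medians that were fit to one- or two-exponential decays for kobs. kcat and KM resulted from weighted Michaelis–Menten fits across concentrations.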", "units": {"self-cleavage kobs at 10000 uM GlcN6P": "s⁻¹"}, "values": [{"variant": "AUAAAAGCGCCAGAACUACAGAAAUGUAGUUGACGGGGAGGAGGUUUAUCGAAUUUUCGGCGGGUGCCUCCAAA", "note": "[A36G A64G]", "self-cleavage kobs at 10000 uM GlcN6P": "1.95e-05 ± 1.2e-05"}, {"variant": "AUAAAAGCGCCAGAACUACAGAAAUGUAGUUGACGGGGAGGAGGUUUAUCGAAUUUUCGGCGGAUGCCGCCAAA", "note": "[A36G U69G]", "self-cleavage kobs at 10000 uM GlcN6P": "1.57e-05 ± 1.6e-05"}, {"variant": "AUAAAAGCGCCAGAACUACAGAAAUGUAGUUGACGUGGAGGAGGUUUAUCGAAUUUUCGGCGGAUGCCGCUAAA", "note": "[A36U U69G C71U]", "self-cleavage kobs at 10000 uM GlcN6P": "2.77e-05 ± 2.2e-05"}, {"variant": "AUAAAAGCGCCAGAACUACAGAAAUGUAGUUGACGAAGAGGAGGUUUAUGGAAUUUUAGGCGGAUGACUCUAAA", "note": "[G37A C50G C58A C67A C71U]", "self-cleavage kobs at 10000 uM GlcN6P": "2.02e-05 ± 1.4e-05"}, {"variant": "AUAAAAGCGCCAGAACUACAGAAAUGUAGUUGACGAAGAGCAGGUUUAUCGAAUUUUCGGCGGAUGCCUCCAAA", "note": "[G37A G41C]", "self-cleavage kobs at 10000 uM GlcN6P": "1.64e-05 ± 1.2e-05"}, {"variant": "AUAAAAGCGCCAGAACUACAGAAAUGUAGUUGACGACGAGGAGGUUUAUCGAAUUAUCGGCGGAUGCCUCCAAA", "note": "[G37C U56A]", "self-cleavage kobs at 10000 uM GlcN6P": "3.24e-05 ± 1.7e-05"}, {"variant": "AUAAAAGCGCCAGAACUACAGAAAUGUAGUUGACGAGUAGGAGGUUUAUUCAAUUUUCGGCGGAUGCCACCAAA", "note": "[G38U C50U G51C U69A]", "self-cleavage kobs at 10000 uM GlcN6P": "3.04e-05 ± 2.3e-05"}, {"variant": "AUAAAAGCGCCAGAACUACAGAAAUGUAGUUGACGAGUAGGAGGUUUAUCGAAUUUUCGGCGGAUGCCUCGAAA", "note": "[G38U C71G]", "self-cleavage kobs at 10000 uM GlcN6P": "1.67e-05 ± 1.6e-05"}, {"variant": "AUAAAAGCGCCAGAACUACAGAAAUGUAGUUGACGAGGCGGAGGUUUAUCGAAUUUUCGGCGGAUGCCUGCAAA", "note": "[A39C C70G]", "self-cleavage kobs at 10000 uM GlcN6P": "1.37e-05 ± 1.3e-05"}, {"variant": "AUAAAAGCGCCAGAACUACAGAAAUGUAGUUGACGAGGCAGAGGUUUAUCGAGUUUUCGGCGGAGGCCUCCAAA", "note": "[A39C G40A A53G U65G]", "self-cleavage kobs at 10000 uM GlcN6P": "4.48e-05 ± 3.3e-05"}, {"variant": "AUAAAAGCGCCAGAACUACAGAAAUGUAGUUGACGAGGCCGAGGUUCAUCGAAUUUUCGGCGGAUGCCUCCAAA", "note": "[A39C G40C U47C]", "self-cleavage kobs at 10000 uM GlcN6P": "2.95e-05 ± 2e-05"}, {"variant": "AUAAAAGCGCCAGAACUACAGAAAUGUAGUUGACGAGGCGGAGGUUUAUCGAAUUUACGGCGGAUGCCUCCAAA", "note": "[A39C U57A]", "self-cleavage kobs at 10000 uM GlcN6P": "1.66e-05 ± 1.2e-05"}, {"variant": "AUAAAAGCGCCAGAACUACAGAAAUGUAGUUGACGAGGCGGAGGUUUAUCGAAUUUCCGGCGGAUGCCUCCAAA", "note": "[A39C U57C]", "self-cleavage kobs at 10000 uM GlcN6P": "1.66e-05 ± 9.5e-06"}, {"variant": "AUAAAAGCGCCAGAACUACAGAAAUGUAGUUGACGAGGGGGAGGUUUAUCGAAUUUUCGGCGGAUGUCUGCAAA", "note": "[A39G C67U C70G]", "self-cleavage kobs at 10000 uM GlcN6P": "2.28e-05 ± 1.8e-05"}, {"variant": "AUAAAAGCGCCAGAACUACAGAAAUGUAGUUGACGAGGUGGAGGUUUAUCGAAGUUUUGGCGGAUGCCUCCAAA", "note": "[A39U U54G C58U]", "self-cleavage kobs at 10000 uM GlcN6P": "2.07e-05 ± 1.2e-05"}, {"variant": "AUAAAAGCGCCAGAACUACAGAAAUGUAGUUGACGAGGACGAGGUUUAUCGAAUUUUAGGCGGAUGCCUCCAAA", "note": "[G40C C58A]", "self-cleavage kobs at 10000 uM GlcN6P": "1.29e-05 ± 9.1e-06"}, {"variant": "AUAAAAGCGCCAGAACUACAGAAAUGUAGUUGACGAGGAUGAGGUUUAUCGAAUUAACGGCGGAUGCCUCCAAA", "note": "[G40U U56A U57A]", "self-cleavage kobs at 10000 uM GlcN6P": "1.82e-05 ± 1.3e-05"}, {"variant": "AUAAAAGCGCCAGAACUACAGAAAUGUAGUUGACGAGGAGAAGGUUUAUCGAAUAUUCGGCGGAUGCCUCCAAA", "note": "[G41A U55A]", "self-cleavage kobs at 10000 uM GlcN6P": "0.0058 ± 0.004"}, {"variant": "AUAAAAGCGCCAGAACUACAGAAAUGUAGUUGACGAGGAGAAGGUUUAUCGAAUUUUCGGCGGAUGCCCCCAAA", "note": "[G41A U69C]", "self-cleavage kobs at 10000 uM GlcN6P": "2.32e-05 ± 1.4e-05"}, {"variant": "AUAAAAGCGCCAGAACUACAGAAAUGUAGUUGACGAGGAGCAGGUUUAUCGAAUUUUCGGCGGAUUCCUCCAAA", "note": "[G41C G66U]", "self-cleavage kobs at 10000 uM GlcN6P": "2.26e-05 ± 1.4e-05"}, {"variant": "AUAAAAGCGCCAGAACUACAGAAAUGUAGUUGACGAGGAGGCGGUUUAUCGAAUCUUCGGCGGAUGCCUCCAAA", "note": "[A42C U55C]", "self-cleavage kobs at 10000 uM GlcN6P": "3.07e-05 ± 1.7e-05"}, {"variant": "AUAAAAGCGCCAGAACUACAGAAAUGUAGUUGACGAGGAGGGGGUCUUUCGAAUUUUCGGCGGAUGCCUCCAAA", "note": "[A42G U46C A48U]", "self-cleavage kobs at 10000 uM GlcN6P": "3.19e-05 ± 2e-05"}, {"variant": "AUAAAAGCGCCAGAACUACAGAAAUGUAGUUGACGAGGAGGUGGUUUAUCGAGUUUUCGGCGGAUGCCUGCAAA", "note": "[A42U A53G C70G]", "self-cleavage kobs at 10000 uM GlcN6P": "1.79e-05 ± 1.1e-05"}, {"variant": "AUAAAAGCGCCAGAACUACAGAAAUGUAGUUGACGAGGAGGUGGUUUAUCGAAUUUUCGGCGGAAGCCUUCAAA", "note": "[A42U U65A C70U]", "self-cleavage kobs at 10000 uM GlcN6P": "2.09e-05 ± 2e-05"}, {"variant": "AUAAAAGCGCCAGAACUACAGAAAUGUAGUUGACGAGGAGGAAGUGUAUCGAAUUUUCGGCGGAUGCCUCCAAA", "note": "[G43A U46G]", "self-cleavage kobs at 10000 uM GlcN6P": "1.56e-05 ± 1.3e-05"}, {"variant": "AUAAAAGCGCCAGAACUACAGAAAUGUAGUUGACGAGGAGGAAGUUUAUCGAAUCUUCGGCGGAUGCCUCCAAA", "note": "[G43A U55C]", "self-cleavage kobs at 10000 uM GlcN6P": "3.23e-05 ± 1.6e-05"}, {"variant": "AUAAAAGCGCCAGAACUACAGAAAUGUAGUUGACGAGGAGGAUGUUUAUCGAAUUUUCGGCGGAUGCUUUCAAA", "note": "[G43U C68U C70U]", "self-cleavage kobs at 10000 uM GlcN6P": "1.66e-05 ± 1.4e-05"}, {"variant": "AUAAAAGCGCCAGAACUACAGAAAUGUAGUUGACGAGGAGGAGAUUUAUCGUAUUUUCGGCGGAUGCCUCCAAA", "note": "[G44A A52U]", "self-cleavage kobs at 10000 uM GlcN6P": "2.19e-05 ± 1.4e-05"}, {"variant": "AUAAAAGCGCCAGAACUACAGAAAUGUAGUUGACGAGGAGGAGCUUUAUCGAAUUUUCGGCGGAUGCUUCCAAA", "note": "[G44C C68U]", "self-cleavage kobs at 10000 uM GlcN6P": "5.27e-05 ± 2.9e-05"}, {"variant": "AUAAAAGCGCCAGAACUACAGAAAUGUAGUUGACGAGGAGGAGUUUUAUCGGAUUUUCGGCGGAUGCCUCCAAA", "note": "[G44U A52G]", "self-cleavage kobs at 10000 uM GlcN6P": "2.22e-05 ± 2e-05"}, {"variant": "AUAAAAGCGCCAGAACUACAGAAAUGUAGUUGACGAGGAGGAGGAUUAUUGAAGUUUCGGCGGAUGCCUCCAAA", "note": "[U45A C50U U54G]", "self-cleavage kobs at 10000 uM GlcN6P": "2.24e-05 ± 2e-05"}, {"variant": "AUAAAAGCGCCAGAACUACAGAAAUGUAGUUGACGAGGAGGAGGAUUAUCGAAUUUUCGGCGGAUGCAUCCAAA", "note": "[U45A C68A]", "self-cleavage kobs at 10000 uM GlcN6P": "2.69e-05 ± 1.7e-05"}, {"variant": "AUAAAAGCGCCAGAACUACAGAAAUGUAGUUGACGAGGAGGAGGAUUAUCGAAUUUUCGGCGGAUUCCUGAAAA", "note": "[U45A G66U C70G C71A]", "self-cleavage kobs at 10000 uM GlcN6P": "2.4e-05 ± 2.4e-05"}, {"variant": "AUAAAAGCGCCAGAACUACAGAAAUGUAGUUGACGAGGAGGAGGAUUAUCGAAUUUUCGGCGGAUGCCGCCAAA", "note": "[U45A U69G]", "self-cleavage kobs at 10000 uM GlcN6P": "4.2e-05 ± 2.2e-05"}, {"variant": "AUAAAAGCGCCAGAACUACAGAAAUGUAGUUGACGAGGAGGAGGGUUAUCGCAUUUUCGGCGGAUGCCUCCAAA", "note": "[U45G A52C]", "self-cleavage kobs at 10000 uM GlcN6P": "2.14e-05 ± 1.5e-05"}, {"variant": "AUAAAAGCGCCAGAACUACAGAAAUGUAGUUGACGAGGAGGAGGUCUAUCGAAUUUUCUGCGGAUGCCUCCAAA", "note": "[U46C G59U]", "self-cleavage kobs at 10000 uM GlcN6P": "1.3e-05 ± 7.4e-06"}, {"variant": "AUAAAAGCGCCAGAACUACAGAAAUGUAGUUGACGAGGAGGAGGUGUGUCGAAUUUUCGGCGGAUACCUCCAAA", "note": "[U46G A48G G66A]", "self-cleavage kobs at 10000 uM GlcN6P": "2.64e-05 ± 1.7e-05"}]}]}
